# According to PubChem BioAssay (EPA / NIEHS):
# The chains behind the UniProt entries cited, without tags or fusion partners. Where a name states a change or a piece, a line headed by the entry shows the natural chain unless it says otherwise.
# UniProt P15207: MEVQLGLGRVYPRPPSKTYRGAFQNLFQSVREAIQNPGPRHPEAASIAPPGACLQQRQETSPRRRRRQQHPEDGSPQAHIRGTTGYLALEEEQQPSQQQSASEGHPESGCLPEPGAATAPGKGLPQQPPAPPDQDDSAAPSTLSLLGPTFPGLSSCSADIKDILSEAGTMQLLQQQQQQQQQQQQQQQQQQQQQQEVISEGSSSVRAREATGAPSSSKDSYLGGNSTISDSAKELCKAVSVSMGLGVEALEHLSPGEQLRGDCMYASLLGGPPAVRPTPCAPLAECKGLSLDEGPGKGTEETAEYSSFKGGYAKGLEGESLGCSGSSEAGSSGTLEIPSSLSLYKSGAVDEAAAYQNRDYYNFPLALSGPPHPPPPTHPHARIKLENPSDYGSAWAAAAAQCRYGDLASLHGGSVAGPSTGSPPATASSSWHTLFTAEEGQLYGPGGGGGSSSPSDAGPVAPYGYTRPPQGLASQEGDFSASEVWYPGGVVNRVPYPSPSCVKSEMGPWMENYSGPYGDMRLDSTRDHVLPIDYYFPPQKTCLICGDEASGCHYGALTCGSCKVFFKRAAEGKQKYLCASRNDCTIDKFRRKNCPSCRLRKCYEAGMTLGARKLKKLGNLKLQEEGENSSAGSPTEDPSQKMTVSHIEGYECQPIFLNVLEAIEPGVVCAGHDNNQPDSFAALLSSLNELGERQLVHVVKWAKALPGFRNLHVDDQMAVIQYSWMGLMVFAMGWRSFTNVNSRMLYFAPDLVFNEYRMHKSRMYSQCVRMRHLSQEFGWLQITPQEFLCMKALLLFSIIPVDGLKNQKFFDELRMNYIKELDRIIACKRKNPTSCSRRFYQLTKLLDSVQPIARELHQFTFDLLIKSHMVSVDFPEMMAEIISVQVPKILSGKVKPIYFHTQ
# UniProt Q9Y233: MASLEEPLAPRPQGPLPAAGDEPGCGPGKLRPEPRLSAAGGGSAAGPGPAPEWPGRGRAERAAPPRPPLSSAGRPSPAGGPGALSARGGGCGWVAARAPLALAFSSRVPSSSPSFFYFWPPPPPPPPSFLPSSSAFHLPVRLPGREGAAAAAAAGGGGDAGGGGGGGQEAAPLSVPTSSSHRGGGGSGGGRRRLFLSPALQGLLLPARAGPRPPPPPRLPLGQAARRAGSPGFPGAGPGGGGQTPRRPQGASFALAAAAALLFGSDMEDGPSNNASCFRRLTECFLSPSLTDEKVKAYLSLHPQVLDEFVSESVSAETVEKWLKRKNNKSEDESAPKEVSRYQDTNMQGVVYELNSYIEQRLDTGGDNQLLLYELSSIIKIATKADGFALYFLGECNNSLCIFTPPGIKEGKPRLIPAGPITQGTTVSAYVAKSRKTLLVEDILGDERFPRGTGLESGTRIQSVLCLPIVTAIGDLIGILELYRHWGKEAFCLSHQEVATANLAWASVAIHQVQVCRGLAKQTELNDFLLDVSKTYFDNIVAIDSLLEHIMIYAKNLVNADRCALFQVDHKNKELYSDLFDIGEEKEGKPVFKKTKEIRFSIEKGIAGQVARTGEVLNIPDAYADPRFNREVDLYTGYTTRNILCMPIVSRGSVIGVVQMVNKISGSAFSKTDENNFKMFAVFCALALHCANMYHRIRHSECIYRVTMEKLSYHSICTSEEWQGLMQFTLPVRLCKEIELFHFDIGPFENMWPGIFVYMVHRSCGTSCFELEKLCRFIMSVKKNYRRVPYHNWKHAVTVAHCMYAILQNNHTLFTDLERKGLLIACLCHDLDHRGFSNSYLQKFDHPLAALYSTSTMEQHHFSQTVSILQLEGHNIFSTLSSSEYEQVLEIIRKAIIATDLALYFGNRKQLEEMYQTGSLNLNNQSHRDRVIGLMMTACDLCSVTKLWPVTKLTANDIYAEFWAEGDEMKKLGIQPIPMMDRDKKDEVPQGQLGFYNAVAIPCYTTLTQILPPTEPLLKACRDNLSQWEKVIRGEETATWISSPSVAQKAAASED
# UniProt P07948: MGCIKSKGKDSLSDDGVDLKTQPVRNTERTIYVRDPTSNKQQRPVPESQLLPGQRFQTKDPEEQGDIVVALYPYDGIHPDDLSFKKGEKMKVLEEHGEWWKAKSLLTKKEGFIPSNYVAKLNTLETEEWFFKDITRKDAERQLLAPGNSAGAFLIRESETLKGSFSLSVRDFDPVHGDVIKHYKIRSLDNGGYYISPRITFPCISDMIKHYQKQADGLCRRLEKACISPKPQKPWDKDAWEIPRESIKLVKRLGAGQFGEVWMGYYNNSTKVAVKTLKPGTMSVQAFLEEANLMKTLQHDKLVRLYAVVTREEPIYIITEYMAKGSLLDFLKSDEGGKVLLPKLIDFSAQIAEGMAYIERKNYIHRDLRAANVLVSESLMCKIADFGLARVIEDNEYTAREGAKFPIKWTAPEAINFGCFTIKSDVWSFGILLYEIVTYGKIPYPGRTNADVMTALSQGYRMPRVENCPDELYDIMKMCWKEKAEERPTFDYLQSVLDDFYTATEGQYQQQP
# UniProt O15379: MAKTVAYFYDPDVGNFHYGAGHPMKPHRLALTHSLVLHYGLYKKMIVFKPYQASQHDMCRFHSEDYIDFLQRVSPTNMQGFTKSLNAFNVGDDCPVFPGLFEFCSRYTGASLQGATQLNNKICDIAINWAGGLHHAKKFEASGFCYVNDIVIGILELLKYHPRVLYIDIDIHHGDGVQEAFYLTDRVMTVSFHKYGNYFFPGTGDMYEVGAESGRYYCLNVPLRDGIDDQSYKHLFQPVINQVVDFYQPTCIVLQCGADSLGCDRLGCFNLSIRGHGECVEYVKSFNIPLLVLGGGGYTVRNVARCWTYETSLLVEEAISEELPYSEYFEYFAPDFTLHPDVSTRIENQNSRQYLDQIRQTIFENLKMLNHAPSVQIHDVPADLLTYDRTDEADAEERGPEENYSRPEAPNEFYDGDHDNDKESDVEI
# UniProt P10828: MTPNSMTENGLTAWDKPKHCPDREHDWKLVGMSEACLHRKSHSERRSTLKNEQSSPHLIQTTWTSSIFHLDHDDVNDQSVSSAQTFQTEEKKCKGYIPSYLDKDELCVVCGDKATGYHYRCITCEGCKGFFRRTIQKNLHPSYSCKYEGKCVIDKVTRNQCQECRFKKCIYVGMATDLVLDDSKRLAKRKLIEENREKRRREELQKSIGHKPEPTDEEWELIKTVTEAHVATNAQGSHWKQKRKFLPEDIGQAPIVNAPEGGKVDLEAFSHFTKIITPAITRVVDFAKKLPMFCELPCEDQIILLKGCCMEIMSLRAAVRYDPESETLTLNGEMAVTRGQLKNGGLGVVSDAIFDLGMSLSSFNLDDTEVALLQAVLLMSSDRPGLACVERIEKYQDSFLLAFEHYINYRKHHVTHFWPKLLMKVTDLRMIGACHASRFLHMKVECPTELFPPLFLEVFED
# UniProt P35968, whole entry, looked up: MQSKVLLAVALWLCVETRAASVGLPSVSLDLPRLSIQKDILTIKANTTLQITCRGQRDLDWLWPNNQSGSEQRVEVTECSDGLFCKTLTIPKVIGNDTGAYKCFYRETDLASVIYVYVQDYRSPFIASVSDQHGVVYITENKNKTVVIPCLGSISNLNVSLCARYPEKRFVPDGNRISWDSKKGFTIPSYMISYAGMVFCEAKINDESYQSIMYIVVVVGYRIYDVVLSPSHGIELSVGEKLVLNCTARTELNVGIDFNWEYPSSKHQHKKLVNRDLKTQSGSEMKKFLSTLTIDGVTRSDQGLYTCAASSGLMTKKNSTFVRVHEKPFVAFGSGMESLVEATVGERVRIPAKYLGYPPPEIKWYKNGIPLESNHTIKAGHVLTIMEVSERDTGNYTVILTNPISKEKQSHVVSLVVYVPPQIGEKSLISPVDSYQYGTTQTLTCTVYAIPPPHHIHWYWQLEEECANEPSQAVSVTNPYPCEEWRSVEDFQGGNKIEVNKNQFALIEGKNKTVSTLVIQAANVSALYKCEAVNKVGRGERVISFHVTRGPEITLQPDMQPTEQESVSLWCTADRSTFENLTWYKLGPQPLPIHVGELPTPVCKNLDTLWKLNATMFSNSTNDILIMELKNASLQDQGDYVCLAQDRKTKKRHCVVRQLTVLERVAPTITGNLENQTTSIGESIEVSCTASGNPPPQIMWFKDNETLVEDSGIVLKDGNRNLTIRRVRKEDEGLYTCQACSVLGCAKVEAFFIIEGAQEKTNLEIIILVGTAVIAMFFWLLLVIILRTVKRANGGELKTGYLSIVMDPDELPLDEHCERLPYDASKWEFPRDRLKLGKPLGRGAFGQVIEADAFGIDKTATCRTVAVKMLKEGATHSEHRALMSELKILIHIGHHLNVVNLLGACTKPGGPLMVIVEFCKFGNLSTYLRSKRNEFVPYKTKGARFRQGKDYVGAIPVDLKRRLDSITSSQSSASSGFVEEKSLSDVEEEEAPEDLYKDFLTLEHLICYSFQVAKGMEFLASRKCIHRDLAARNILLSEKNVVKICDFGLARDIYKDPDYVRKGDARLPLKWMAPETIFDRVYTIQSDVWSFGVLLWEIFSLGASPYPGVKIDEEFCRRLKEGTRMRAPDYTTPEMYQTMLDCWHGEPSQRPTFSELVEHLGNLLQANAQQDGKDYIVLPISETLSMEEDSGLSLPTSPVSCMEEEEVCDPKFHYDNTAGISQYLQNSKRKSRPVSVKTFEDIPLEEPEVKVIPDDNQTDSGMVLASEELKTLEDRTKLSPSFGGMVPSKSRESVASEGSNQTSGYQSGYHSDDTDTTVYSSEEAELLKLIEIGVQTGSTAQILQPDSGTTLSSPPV
# UniProt Q92731, whole entry, looked up: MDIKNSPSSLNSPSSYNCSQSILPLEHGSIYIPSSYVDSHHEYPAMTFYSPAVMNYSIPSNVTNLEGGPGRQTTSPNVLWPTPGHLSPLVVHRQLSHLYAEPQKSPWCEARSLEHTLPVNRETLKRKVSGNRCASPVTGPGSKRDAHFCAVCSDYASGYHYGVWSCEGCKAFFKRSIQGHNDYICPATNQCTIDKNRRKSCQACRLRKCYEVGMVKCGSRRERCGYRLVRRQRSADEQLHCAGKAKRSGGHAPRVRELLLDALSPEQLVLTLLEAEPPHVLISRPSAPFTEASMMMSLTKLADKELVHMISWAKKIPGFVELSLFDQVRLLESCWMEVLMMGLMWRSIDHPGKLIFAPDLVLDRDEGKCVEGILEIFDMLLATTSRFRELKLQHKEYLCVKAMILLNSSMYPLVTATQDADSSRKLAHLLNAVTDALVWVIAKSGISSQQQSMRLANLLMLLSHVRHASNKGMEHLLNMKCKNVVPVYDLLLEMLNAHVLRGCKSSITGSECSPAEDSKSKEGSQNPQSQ
# UniProt P28646: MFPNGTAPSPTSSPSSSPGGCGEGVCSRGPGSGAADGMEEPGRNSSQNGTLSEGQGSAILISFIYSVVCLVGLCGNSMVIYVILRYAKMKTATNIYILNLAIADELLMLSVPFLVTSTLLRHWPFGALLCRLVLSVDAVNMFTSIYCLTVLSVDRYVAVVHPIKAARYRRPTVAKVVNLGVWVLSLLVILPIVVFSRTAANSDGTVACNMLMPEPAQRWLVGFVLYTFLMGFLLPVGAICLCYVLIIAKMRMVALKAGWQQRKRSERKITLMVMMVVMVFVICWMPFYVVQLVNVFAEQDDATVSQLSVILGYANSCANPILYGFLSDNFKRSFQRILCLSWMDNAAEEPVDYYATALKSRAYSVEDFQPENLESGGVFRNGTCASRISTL
# UniProt Q05941, whole entry, looked up: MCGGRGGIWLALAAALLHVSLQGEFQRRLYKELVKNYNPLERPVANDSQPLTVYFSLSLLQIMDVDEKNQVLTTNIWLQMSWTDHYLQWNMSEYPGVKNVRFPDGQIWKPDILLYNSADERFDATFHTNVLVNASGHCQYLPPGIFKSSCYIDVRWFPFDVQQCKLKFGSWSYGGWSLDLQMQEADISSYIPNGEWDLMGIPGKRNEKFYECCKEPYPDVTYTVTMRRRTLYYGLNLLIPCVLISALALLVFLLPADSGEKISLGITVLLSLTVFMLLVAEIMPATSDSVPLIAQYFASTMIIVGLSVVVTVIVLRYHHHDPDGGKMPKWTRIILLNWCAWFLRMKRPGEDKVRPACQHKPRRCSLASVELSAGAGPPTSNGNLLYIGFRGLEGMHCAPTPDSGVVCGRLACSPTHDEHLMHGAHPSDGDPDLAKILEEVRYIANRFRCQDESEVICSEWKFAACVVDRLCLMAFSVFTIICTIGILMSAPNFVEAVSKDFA
# The shares of active, inactive and inconclusive entries below differ from those in the screen. For some of these results: Where the call is inconclusive, the potency comes from a doubtful curve fit. Active and inactive are the calls of the source. The calls were made as follows: active = hit-call score of the fitted dose curve at least 0.9, where 1 is the maximum; inconclusive = response in the unintended direction; inactive = score below 0.9.
# How the values were obtained:
# [1] = molecular target: Type-1 angiotensin II receptor (Homo sapiens) (UniProt P30556); assay: NVS_GPCR_hAT1: NovaScreen (NVS) G Protein-Coupled Receptor Assay for human Angiotensin II receptor type 1 (AT1) (AID 2283263)
# In short: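 Membranes from KAN-TS cells; radioligand competitive displacement, 3 h, filtration and scintillation counting. Single-point duplicate screen at 25 uM, then concentration-response up to 50 uM for hits; loss of signal fitted versus DMSO.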
# [2] = molecular target: rat Androgen Receptor (AR), Ar (gene 24208) (UniProt P15207); assay: NVS_NR_rAR: NovaScreen (NVS) Nuclear Receptor Binding Assay for rat Androgen Receptor (AR) (AID 2283366)
# In short: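 Cell-free radioligand binding on extracts of prostate from testosterone-pretreated rats, read by filter-based scintillation counting 18 h after dosing. Loss of bound signal fitted positively versus DMSO; primary screen in duplicate at 25 uM, actives followed up in concentration series.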
# [3] = TAMU_PeakParms_SingleDonor1434_Asystole: Texas A&M University (TAMU) 1.5-hr Human Induced Pluripotent Stem Cell (iPSC)-derived Cardiomyocytes Calcium (Ca+2) Flux Assay for Cardiotoxicity: Asystole (quiescence of beating) (AID 2284328)
# In short: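 Human iPSC-derived cardiomyocytes (donor 1434) were exposed to 0.2, 1, 10 and 100 uM compound in 0.5% DMSO for 90 min at 37C. Ca2+-dye fluorescence gave average peak frequency; POD is EC95, a 95% beat-rate drop versus DMSO.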
# [4] = ArunA_NOG_BranchPointsPerNeurite: ArunA Biomedical's Neurite Outgrowth (NOG) Assay for Branch Points Per Neurite (AID 2283759)
# In short: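 Automated image analysis traced neurites (processes >10 um) from valid cell bodies after Hoechst and βIII-tubulin staining. hNN cells from H9 embryonic stem cells, 48 h exposure. Fitted bidirectionally against DMSO.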
# [5] = molecular target: human Phosphodiesterase 10 (PDE10), PDE10A (gene 10846) (UniProt Q9Y233); assay: NVS_ENZ_hPDE10: NovaScreen (NVS) Enzymatic Assay for human Phosphodiesterase 10 (PDE10) (AID 2283195)
# In short: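 Fluorescence/mobility-shift readout of PDE10A enzyme activity, taken 1 h post-dosing. Primary screen in duplicate at 25 uM; actives (e.g. ≥30% inhibition) retested as singleton concentration-response, top concentration 50 uM.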
# [6] = molecular target: Protein deacetylase HDAC6 (Homo sapiens) (UniProt Q9UBN7); assay: NVS_ENZ_hHDAC6: NovaScreen (NVS) Enzymatic Assay for human Histone Deacetylase 6 (HDAC6) (AID 2283164)
# In short: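 Recombinant human HDAC6 with fluorescent substrate, 1 h; product separated from substrate by electrophoretic mobility shift. Primary screen in duplicate at 25 uM; actives retested singly in concentration-response up to 50 uM, fitted relative to DMSO.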
# [7] = TOX21_PR_LUC_Followup_Antagonist_viability: Viability Assessment in the Tox21 HEK293 Progesterone Receptor (PR) Antagonism Luciferase Follow-Up Assay (AID 2283940)
# In short: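 HEK293-PR-A-luc cells, precultured 5 days in assay medium with 10% charcoal-stripped FBS, were seeded at 3,000 cells/well, treated with compounds in DMSO for 16 h at 37C, and viability was read as cellular ATP by CellTiter-Glo luminescence.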
# [8] = TAMU_PeakParms_SingleDonor1434_QT: Texas A&M University (TAMU) 1.5-hr Human Induced Pluripotent Stem Cell (iPSC)-derived Cardiomyocytes Calcium (Ca+2) Flux Assay for Cardiotoxicity: QT (decay-rise ratio) (AID 2284235)
# In short: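 iPSC-derived cardiomyocytes (single donor 1434) dosed at 0.2, 1, 10, 100 uM final in 0.5% DMSO, 90 min at 37C. Ca2+ flux fluorescence decay/rise ratio; EC05 (5% increase versus DMSO) as POD, excluding beat-arrest and severe-notch data.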
# [9] = molecular target: human LYN Proto-Oncogene, Src family Tyrosine Kinase (LynA), LYN (gene 4067) (UniProt P07948); assay: NVS_ENZ_hLynA: NovaScreen (NVS) Enzymatic Assay for human LYN Proto-Oncogene, Src family Tyrosine Kinase (LynA) (AID 2283173)
# In short: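 Recombinant kinase with fluorescent substrate; product separated from substrate by electrophoretic mobility shift and read 1 h after dosing. Duplicate screen at 25 uM, then concentration-response up to 50 uM; activity scored as signal loss against DMSO.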
# [10] = molecular target: Histone deacetylase 3 (Homo sapiens) (UniProt O15379); assay: NVS_ENZ_hHDAC3: NovaScreen (NVS) Enzymatic Assay for human Histone Deacetylase 3 (HDAC3) (AID 2283163)
# In short: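 Recombinant human HDAC3 with fluorescent substrate, 1 h after dosing; product separated from substrate by electrophoretic mobility shift and read by fluorescence. Primary screen at 25 uM in duplicate; actives (e.g. ≥30% inhibition) retested in concentration-response up to 50 uM.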
# [11] = molecular target: human Thyroid hormone Receptor beta (TRb), THRB (gene 7068) (UniProt P10828); assay: ATG_hTRb_XSP2: Attagene TRANS-FACTORIAL Multi-Species (XSP2) HepG2 Assay for human Thyroid hormone Receptor beta (TRb) (AID 2283840);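 also: actives raise reporter mRNA so potency reflects agonist-like gain of signal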
# In short: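 Transient transfection of human HepG2 with multi-species NR-Gal4/GAL4-UAS reporter constructs; 24 h compound treatment; RNA isolation, reverse transcription, PCR and HpaI digest; capillary electrophoresis of labeled fragments; activity fitted upward versus DMSO.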
# [12] = read-out: glucuronosyltransferase (UGT1A1), UGT1A1 (gene 54658); assay: CLD_UGT1A1_6hr: CellzDirect (CLD) Gene Expression Assay for glucuronosyltransferase (UGT1A1) at 6 hours (AID 2283672)
# In short: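 Primary human hepatocytes from two donor preparations, dosed with fresh solutions in 0.2% DMSO, harvested at 6 h. UGT1A1 mRNA measured by qNPA chemiluminescence; induction fitted upward versus DMSO.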
# [13] = molecular target: human Vascular Endothelial Growth Factor Receptor 2 (VEGFR2), KDR (gene 3791) (UniProt P35968); assay: NVS_ENZ_hVEGFR2: NovaScreen (NVS) Enzymatic Assay for human Vascular Endothelial Growth Factor Receptor 2 (VEGFR2) (AID 2283230)
# In short: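 Cell-free recombinant VEGFR2 kinase, fluorescent substrate with electrophoretic mobility-shift separation; read 1 h after dosing. Screened at 25 uM in duplicate, hits to concentration-response up to 50 uM; loss-of-signal versus DMSO.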
# [14] = molecular target: Estrogen receptor beta (Homo sapiens) (UniProt Q92731); assay: ATG_hERb_XSP2: Attagene TRANS-FACTORIAL Multi-Species (XSP2) HepG2 Assay for human Estrogen Receptor (ERb) (AID 2283813);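 also: actives raise reporter mRNA above DMSO so AC50 reflects agonist induction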
# In short: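 HepG2 cells transiently transfected with GAL4-UAS reporter units and chimeric human ERb-Gal4, 24 h exposure. Reporter mRNA quantified by RT-PCR with FAM labelling, HpaI digestion and capillary electrophoresis; gain of signal versus DMSO.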
# [15] = molecular target: Estrogen receptor beta (Homo sapiens) (UniProt Q92731); assay: ATG_hERb_XSP1: Attagene TRANS-FACTORIAL Multi-Species (XSP1) HepG2 Assay for human Estrogen Receptor (ESR2) (AID 2283788)
# In short: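 Read-out: reporter mRNA induction by RT-PCR, HpaI digestion and capillary electrophoresis fluorescence, fitted in positive direction relative to DMSO baseline. Human liver HepG2 cells expressing ERβ-Gal4 fusion, dosed 24 h, medium containing 3 nM 6-alpha-fluorotestosterone.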
# [16] = ATG_M_32_XSP1: Attagene TRANS-FACTORIAL Multi-Species (XSP1) HepG2 Assay for M32 Transcription Factor (Internal Marker) (AID 2283799)
# In short: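 HepG2 cells transiently transfected with multi-species TRANS reporter units, dosed 24 h with 3 nM 6-alpha-fluorotestosterone present. Internal-marker reporter mRNA quantified by RT-PCR and capillary electrophoresis; positive-direction fit versus DMSO.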
# [17] = tested on: turtle Estrogen Receptor (ERa), gene 101933533; assay: ATG_trERa_XSP2: Attagene TRANS-FACTORIAL Multi-Species (XSP2) HepG2 Assay for turtle Estrogen Receptor (ERa) (AID 2283812);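 also: human HepG2 liver cells transiently expressing turtle ERa-Gal4 chimeric receptor; actives raise reporter signal above DMSO so AC50 reflects agonist activity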
# In short: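 HepG2 cells transiently transfected with GAL4-UAS reporter units expressing turtle ERa-Gal4 chimera. Reporter mRNA measured after 24 h dosing by RT-PCR, fluorescent labelling and capillary electrophoresis; gain of signal fitted versus DMSO.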
# [18] = molecular target: rat Somatostatin Receptor (SST), Sstr1 (gene 25033) (UniProt P28646); assay: NVS_GPCR_rSST: NovaScreen (NVS) G Protein-Coupled Receptor Assay for rat Somatostatin Receptor (SST) (AID 2283314)
# In short: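 Rat forebrain membranes; radioligand displacement read by filter-based scintillation counting 1 h after dosing. Primary screen in duplicate at 25 uM. Actives (e.g., 30% inhibition) were rerun as concentration-response to 50 uM max and fitted against DMSO.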
# [19] = molecular target: rat Neonicotinoid receptor (NNR), Chrna7 (gene 25302) (UniProt Q05941); assay: NVS_LGIC_rNNR_BungSens: NovaScreen (NVS) Ligand-Gated Ion Channel Assay for rat Neonicotinoid receptor (NNR) (AID 2283315)
# In short: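 Radioligand displacement binding on rat cortical membranes, 2.5 h incubation, filtration and scintillation counting. Loss of specific binding fitted relative to DMSO.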
smiles,measurement,setting,value
C=C(C)[C@H]1Cc2c(ccc3c2O[C@@H]2COc4cc(OC)c(OC)cc4[C@@H]2C3=O)O1,AC50,[1],inconclusive: 44.7 µM
same,AC50,[2],inconclusive: 25 µM
same,outcome,[2],inactive
same,AC50,[3],active: 0.01 µM
C=CCC1=C(C)[C@@H](OC(=O)[C@@H]2[C@@H](C=C(C)C)C2(C)C)CC1=O,AC50,[1],inconclusive: 46.6 µM
same,AC50,[4],inconclusive: 5 µM
N#Cc1ccc(O)cc1,AC50,[5],inconclusive: 25 µM
ClC1C(Cl)C(Cl)C(Cl)C(Cl)C1Cl (configuration not stated),AC50,[6],active: 0.00517 µM
same,AC50,[7],inconclusive: 46.1 µM
same,AC50,[8],inconclusive: 50 µM
same,outcome,[3],inactive
c1ccc(NNc2ccccc2)cc1,outcome,[9],inactive
CCCCC(CC)COC(=O)c1ccc(C(=O)OCC(CC)CCCC)c(C(=O)OCC(CC)CCCC)c1 (configuration not stated),AC50,[10],inconclusive: 25 µM
same,AC50,[6],inconclusive: 0.216 µM
same,outcome,[11],inactive
COC(=O)c1ccccc1S(=O)(=O)NC(=O)Nc1nc(C)nc(OC)n1,AC50,[12],inconclusive: 0.0205 µM
CCCC1COC(Cn2cncn2)(c2ccc(Cl)cc2Cl)O1 (configuration not stated),outcome,[2],inactive
CCOC(=O)C(O)(c1ccc(Cl)cc1)c1ccc(Cl)cc1,outcome,[13],inactive
same,AC50,[14],inconclusive: 0.00704 µM
CSC(=O)c1c(C(F)F)nc(C(F)(F)F)c(C(=O)SC)c1CC(C)C,AC50,[15],inconclusive: 1.77 µM
same,outcome,[16],inactive
same,outcome,[17],inactive
same,AC50,[14],inconclusive: 5.78 µM
CC(C1CC1)C(O)(Cn1cncn1)c1ccc(Cl)cc1 (configuration not stated),AC50,[18],inconclusive: 16.7 µM
CCOP(=S)(OCC)O/N=C(\C#N)c1ccccc1,AC50,[11],inconclusive: 0.00914 µM
C#CC(C)(C)NC(=O)c1cc(Cl)cc(Cl)c1,AC50,[16],inconclusive: 100 µM
COC(=O)N(C(=O)N1CO[C@@]2(C(=O)OC)Cc3cc(Cl)ccc3C2=N1)c1ccc(OC(F)(F)F)cc1,AC50,[18],inconclusive: 0.837 µM
same,outcome,[19],inactive
CN1COCN(Cc2cnc(Cl)s2)C1=N[N+](=O)[O-],AC50,[19],inconclusive: 6.02 µM
O=C(O)c1nc(Cl)ccc1Cl,AC50,[12],inconclusive: 20 µM
CCN(CC)C(=O)Cl,AC50,[19],inconclusive: 25 µM
Clc1ccc(C(c2ccc(Cl)cc2)C(Cl)(Cl)Cl)cc1,outcome,[13],inactive
same,outcome,[15],inactive
same,outcome,[11],inactive
same,outcome,[7],inactive
Cc1ccc(OP(=O)(Oc2ccc(C)cc2)Oc2ccc(C)cc2)cc1 (tested in a mixture with another compound),outcome,[8],inactive
same,AC50,[3],active: 7.7 µM

# 10 entries from above, with tabs.
smiles	measurement	setting	value
ClC1C(Cl)C(Cl)C(Cl)C(Cl)C1Cl (configuration not stated)	outcome	[3]	inactive
c1ccc(NNc2ccccc2)cc1	outcome	[9]	inactive
CCCCC(CC)COC(=O)c1ccc(C(=O)OCC(CC)CCCC)c(C(=O)OCC(CC)CCCC)c1 (configuration not stated)	AC50	[10]	inconclusive: 25 µM
same	AC50	[6]	inconclusive: 0.216 µM
same	outcome	[11]	inactive
COC(=O)c1ccccc1S(=O)(=O)NC(=O)Nc1nc(C)nc(OC)n1	AC50	[12]	inconclusive: 0.0205 µM
CCCC1COC(Cn2cncn2)(c2ccc(Cl)cc2Cl)O1 (configuration not stated)	outcome	[2]	inactive
CCOC(=O)C(O)(c1ccc(Cl)cc1)c1ccc(Cl)cc1	outcome	[13]	inactive
same	AC50	[14]	inconclusive: 0.00704 µM
CSC(=O)c1c(C(F)F)nc(C(F)(F)F)c(C(=O)SC)c1CC(C)C	AC50	[15]	inconclusive: 1.77 µM
